The values below come from publication PMC6399291.

B1: GST-PIKE-A WT [not stated] / Flag-CDK4 [not stated] (parent)
chain 1: MHAQRQFVVAAVRAEVRRHEVAKQALNRLRKLAERVDDPELQDSIQASLDSIREAVINSQEWTLSRSIPELRLGVLGDARSGKSSLIHRFLTGSYQVLEKTESEQYKKEMLVDGQTHLVLIREEAGAPDAKFSGWADAVIFVFSLEDENSFQAVSRLHGQLSSLRGEGRGGLALALVGTQDRISASSPRVVGDARARALCADMKRCSYYETCATYGLNVDRVFQEVAQKVVTLRKQQQLLAACKSLPSSPSHSAASTPVAGQASNGGHTSDYSSSLPSSPNVGHRELRAEAAAVAGLSTPGSLHRAAKRRTSLFANRRGSDSEKRSLDSRGETTGSGRAIPIKQSFLLKRSGNSLNKEWKKKYVTLSSNGFLLYHPSINDYIHSTHGKEMDLLRTTVKVPGKRPPRAISAFGPSASINGLVKDMSTVQMGEGLEATTPMPSPSPSPSSLQPPPDQTSKHLLKPDRNLARALSTDCTPSGDLSPLSREPPPSPMVKKQRRKKLTTPSKTEGSAGQAEEENFEFLIVSSTGQTWHFEAASFEERDAWVQAIESQILASLQCCESSKVKLRTDSQSEAVAIQAIRNAKGNSICVDCGAPNPTWASLNLGALICIECSGIHRNLGTHLSRVRSLDLDDWPRELTLVLTAIGNDTANRVWESDTRGRAKPSRDSSREERESWIRAKYEQLLFLAPLSTSEEPLGRQLWAAVQAQDVATVLLLLAHARHGPLDTSVEDPQLRSPLHLAAELAHVVITQLLLWYGADVAARDAQGRTALFYARQAGSQLCADILLQHGCPGEGGSAATTPSAATTPSITATPSPRRRSSAASVGRADAPVALV
chain 2: MATSRYEPVAEIGVGAYGTVYKARDPHSGHFVALKSVRVPNGGGGGGGLPISTVREVALLRRLEAFEHPNVVRLMDVCATSRTDREIKVTLVFEHVDQDLRTYLDKAPPPGLPAETIKDLMRQFLRGLDFLHANCIVHRDLKPENILVTSGGTVKLADFGLARIYSYQMALTPVVVTLWYRAPEVLLQSTYATPVDMWSVGCIFAEMFRRKPLFCGNSEADQLGKIFDLIGLPPEDDWPRDVSLPRGAFPPRGPRPVQSVVPEMEESGAQLLLEMLTFNPHKRISAFRALQHSYLHKDEGNPE
B2: myc-PIKE-A WT [not stated] / GFP-14-3-3β [not stated] (parent)
chain 1: B1 chain 1
chain 2: MTMDKSELVQKAKLAEQAERYDDMAAAMKAVTEQGHELSNEERNLLSVAYKNVVGARRSSWRVISSIEQKTERNEKKQQMGKEYREKIEAELQDICNDVLELLDKYLIPNATQPESKVFYLKMKGDYFRYLSEVASGDNKQTTVSNSQQAYQEAFEISKKEMQPTHPIRLGLALNFSVFYYEILNSPEKACSLAKTAFDEAIAELDTLNEESYKDSTLIMQLLRDNLTLWTSENQGDEGDAGEGEN

The variants in the first assay derive from B1. Nature of the assay: GST pull-down (WB: anti-Flag), band quantification. Conditions: with Flag-CDK4; HEK293 cells, co-transfected with myc-AMPKα T172A; parent: 0.55; read off a plot.
As to chain 1 S351A S377A, the response (GST pull down/Cell lysate) turned out to be 0.18.

Staying with this assay, now noted: with Flag-CDK4; HEK293 cells, co-transfected with myc-AMPKα T172D; parent: 1; read off a plot.
chain 1 S351A S377A: the response (GST pull down/Cell lysate) is 0.35.

Variants of B1 are the subject of another assay. The experiment in a line: co-immunoprecipitation (IP: anti-CDK4, WB: anti-GFP), band quantification. Conditions: with CDK4 (in HEK293 cells, Fig. 4d), parent: 1, read off a plot.
Consider chain 1 S351A S377A, for which the response (IP/Cell lysate (anti-GFP)) amounted to 0.35.

As to chain 1 S351D S377D, the response (IP/Cell lysate (anti-GFP)) stood at 2.

A further assay covers variants of B1. The experiment in a line: co-immunoprecipitation (IP: anti-GFP, WB: anti-CDK4), band quantification. Conditions: with CDK4 (in HEK293 cells, Fig. 4d), parent: 1, read off a plot.
As for chain 1 S351A S377A, the response (IP/Cell lysate (anti-CDK4)) turned out to be 0.7.

Take chain 1 S351D S377D: the response (IP/Cell lysate (anti-CDK4)) was 2.1.

In another assay the parent is B2. The experiment in a line: co-immunoprecipitation (IP: anti-GFP, WB: anti-myc), band quantification. Conditions: with GFP-14-3-3β; HEK293 cells, co-transfected; parent: 1; read off a plot.
With chain 1 S351D S377D, the response (IP/Cell lysate) is 1.9.

Regarding chain 1 S351A, the response (IP/Cell lysate) worked out at 0.85.

On to chain 1 S351D, for which the response (IP/Cell lysate) was 1.2.

Turning to chain 1 S351A S377A, the response (IP/Cell lysate) was found to be 0.6.

On to chain 1 S377A, for which the response (IP/Cell lysate) amounted to 0.7.

As to chain 1 S377D, the response (IP/Cell lysate) was 1.3.
